Laboratory results taken from the supplement of paper PMC4683952.
The other results are listed elsewhere or left out. Cut-off read from the data, not from the text of the source: active = 2 or more and inactive = the rest. Repeats in this data set agree poorly, so a single value says little.

These compounds were tested on Lgr5 (MarsCy1-Lgr5-EGFP, U2OS) (assay: cell-surface Lgr5 expression (SCi1 fluorescence, background-subtracted) relative to WT DMSO (fold of DMSO control); higher = more Lgr5 at the plasma membrane). Conditions: U2OS MarsCy1-Lgr5-EGFP stable; treatment time: overnight; library: ActiProbe-5K (TimTec); 25 µM.

SMILES | cell-surface Lgr5 expression
Oc1nc(S)nc2sc3c(c12)CCCC3 | inactive: 1.23
Nc1cc(N)nc(SCCOc2ccc(Cl)cc2)n1 | inactive: 1.23
CC(=O)Nc1nonc1NC(=O)CSc1nc[nH]n1 | inactive: 0.978
c1coc(CN2COc3cc4c(cc3C2)OCN(Cc2ccco2)C4)c1 | inactive: 1.54
COc1ccc(OCCSc2nc3ccccc3o2)cc1 | inactive: 1.07
Cc1ccsc1C1C(C#N)=C(N)Oc2n[nH]c(C(C)(C)C)c21 (stereo not drawn) | inactive: 1.09
COc1ccc(-c2cc(C(F)(F)C(F)F)on2)cc1 | inactive: 1.15
CCN1c2ccccc2-c2c(ssc2=S)C1(C)C | inactive: 0.779
C/C(=N/C1CC1)c1c(C)[nH]n(-c2nc3ccccc3s2)c1=O | inactive: 1.64
CC1(C)CC(=O)C2=C(C1)OC(=O)C2(NC(=O)c1cccs1)C(F)(F)F (stereo not drawn) | inactive: 1.03
COc1ccc2sc(N)nc2c1 | inactive: 1.33
CCOC(=O)/C(C#N)=C/Nc1cc(C)on1 | inactive: 0.969
CSC(=O)/C(C#N)=C/c1ccoc1 | inactive: 1.27
COC(=O)c1n[nH]cc1N | inactive: 1.14
Fc1ccc(SCSc2ccccc2)cc1 | inactive: 1.06
CC(=O)C1=C(C)Nc2ncnn2C1c1cccs1 (stereo not drawn) | inactive: 0.937
Cc1nn(C)cc1-c1nnc(-c2ccnn2C(F)F)o1 | inactive: 1.18
COC(=O)CSc1nsc(SCC(=O)OC)c1C#N | inactive: 1.03
CN(C)c1nc(N)nc(CN(c2ccc(F)cc2)S(C)(=O)=O)n1 | inactive: 1.52
CC(=O)C(C(C)=O)C12CC3CC(CC(C3)C1)C2 | inactive: 1.05
C(=N/N1CCN(C2c3ccccc3-c3ccccc32)CC1)/c1c[nH]c2ccccc12 | inactive: 1.17
C#CCNC1CCCCC1C(C)=O (stereo not drawn) | inactive: 1.02

SMILES | cell-surface Lgr5 expression
O=C(O)CC(C(=O)O)C1CCCO1 (stereo not drawn) | inactive: 1.3
CCn1cc2nnn(Cc3ccco3)c(=O)c2n1 | inactive: 1.31
N#Cc1ccnc(Oc2ccc(F)cc2F)c1 | inactive: 1.39
O=[N+]([O-])c1ccc(/C=N\c2cc(Cl)c(Cl)cc2Cl)o1 | inactive: 1.22
CCOC1(C)OC2CCC(CC)OC2O1 (stereo not drawn) | inactive: 1.21
Cc1ccc(C2=NNC(C)(C3(C)NN=C(c4ccc(C)cc4)S3)S2)cc1 (stereo not drawn) | inactive: 1.25
CC(=O)Nc1ccc(NC(=N)Nc2nc(C)cc(C)n2)cc1 | inactive: 1.07
CCC1C[N+]2(C)CCC34C(=C(C=O)[C@H]1C[C@@H]32)Nc1ccccc14 (stereo partly drawn) | inactive: 1.34
N#CC1=C(N2CCOCC2)c2cc3c(n2C1=N)CCCC3 | inactive: 1.04
NC1=NNC(=O)/C1=C1/CCCN1 | inactive: 0.879
CC(=O)c1c(NC2CCCCC2)oc(C)cc1=O | inactive: 1.09
CC1=C(c2nnn[nH]2)C(=O)OC1(C)C | inactive: 0.975
O=C(Nn1cnnc1)c1ccco1 | inactive: 1.36
O=C(NNC(=S)NC1CCCCC1)c1n[nH]cc1[N+](=O)[O-] | inactive: 1.11
O=C1N(O)C2(C=CCCC2)/C(=N/O)C12CCCCC2 (stereo not drawn) | inactive: 1.1
O=C(N1CCNCC1)C12CC3CC(CC(C3)C1)C2 | inactive: 1.34
CC(=O)Nc1cc(=O)[nH]c(C)n1 | inactive: 1.31
O=C1NCS(=O)(=O)c2ccccc21 | inactive: 0.992
O=C1NN(c2cccc(Br)c2)C(=O)/C1=C1/C(=O)Nc2ccccc21 | inactive: 0.999
Nc1cc(N)cc(Oc2cc(N)cc(N)c2)c1 | inactive: 1.09
N#Cc1c(N)nc2c(c1-c1ccc(Br)s1)CCCCCC2 | inactive: 0.806
N#CCS/C(SCC(=O)c1ccc2c(c1)OCO2)=C(/C#N)C(=O)c1ccc2c(c1)OCO2 | active: 2.98

SMILES | cell-surface Lgr5 expression
Sc1nnc(-c2ccc(Cl)cc2)o1 | inactive: 1.13
Cc1nccn1CCCN1C(=O)OC2(CCCCC2)C1(C)O (stereo not drawn) | inactive: 1.11
Cn1cc(Cn2ccc(N)n2)cn1 | inactive: 1.08
CC1CCc2c(sc3nc(-c4cccs4)oc(=O)c23)C1 (stereo not drawn) | inactive: 1.05
Cc1ccc(/C=N/NC(=O)c2cc(C)oc2C)o1 | inactive: 1.03
C=CCn1c(-c2ccccc2)n[nH]c1=S | inactive: 1
CC(=O)c1c(C)n(O)c2ccc(Cl)cc2c1=O | inactive: 1.26
O=c1[nH]c2c(c3c1c(=O)oc1ccccc13)CCCC2 | inactive: 1.41
CCOC(=O)C1(c2csc(N)n2)COC(=O)C1 (stereo not drawn) | inactive: 1.3
CC(C)(C)SCCNS(=O)(=O)c1ccc2c(c1)OCCO2 | inactive: 1.07
O=C(CN1CCN(CC(=O)Nc2nccs2)CC1)Nc1nccs1 | inactive: 1.12
O=C1Nc2ccccc2/C1=N/N1C(=O)CNC1=O | inactive: 1.12
O=C(CCCCC(=O)NNC(=O)c1cccs1)NNC(=O)c1cccs1 | inactive: 1.11
Cc1cc(=O)c2c(=O)oc3ccccc3c2o1 | inactive: 1.15
CC1(C)Cc2c(c(N3CCOCC3)nc3sc4c(NN)ncnc4c23)CO1 | inactive: 1.51
O=C(c1[nH]nc([N+](=O)[O-])c1Br)N1CCSCC1 | inactive: 1.28
COc1cc(-c2nnc(Nc3ccc4c(c3)OCO4)o2)cc(OC)c1OC | inactive: 1.15
Cc1nc2c(o1)NC(N)=C(C#N)C2c1cccs1 (stereo not drawn) | inactive: 0.97
CCC(C(=O)O)N1C(=O)NC2C1N(C)C(=O)N2C (stereo not drawn) | inactive: 1.32
COc1coc(C(=O)O)c1OC | inactive: 1.18
COn1c2c(c3c4nonc4ccc31)CCCC2 | inactive: 0.613
CCCCOC(=O)CC1NCCNC1=O (stereo not drawn) | inactive: 1.14

SMILES | cell-surface Lgr5 expression
O=C1C(=O)N(CN2CC=CCC2)c2ccccc21 | inactive: 0.9
CCn1c(C)cc(C=O)c1C | inactive: 1.17
O=[N+]([O-])c1cnn(-c2cnc3c([N+](=O)[O-])cnn3c2)c1 | inactive: 1
CC1(C)CC(O)CC(C)(C)N1CCO | inactive: 1.25
COc1cc(-n2nnn([C@H]3CC(=O)[C@@H]4OC[C@H]3O4)c2=S)c(OC)cc1Cl | inactive: 1.31
Cc1nc2sc3c(=O)[nH]nnc3c2c(C)c1Cl | inactive: 1.1
N/C(=N\O)c1ccc(Br)cc1 | inactive: 1.14
O=C(O)c1ccnn1C(F)F | inactive: 1.09
OC1(c2cn3ccccc3n2)CCCCC1 | inactive: 0.968
Brc1ccccc1C1OCC2(CO1)COC(c1ccccc1Br)OC2 (stereo not drawn) | inactive: 1.26
c1cn(CCC2CCNCC2)cn1 | inactive: 1.13
Cc1ccc(-c2nnc(S)n2/N=C\c2ccc(C(C)(C)C)cc2)cc1 | inactive: 0.798
O=S(=O)(O)c1cc(O)c2c(O)cc(S(=O)(=O)O)cc2c1 | inactive: 1.12
O=S1(=O)OC(c2ccc(O)c(Cl)c2)(c2ccc(O)c(Cl)c2)c2ccccc21 | inactive: 1.01
Cc1ccc(C(C2=C(O)CC(C)(C)CC2=O)C2C(=O)CC(C)(C)CC2=O)s1 (stereo not drawn) | inactive: 0.908
O=C1CCC([N+](=O)[O-])C(c2cccs2)N1 (stereo not drawn) | inactive: 1.21
O=[N+]([O-])c1sc2ccccc2c1N1CCOCC1 | inactive: 1.01
COc1ccc(C(/N=C/N(C)C)c2nccc3cc(OC)c(OC)cc23)cc1OC (stereo not drawn) | inactive: 1.33
O=[N+]([O-])c1ccc2c(c1)C1C=CCC1C(C1CC=CCC1)N2 (stereo not drawn) | inactive: 0.651
Sc1nnc(-c2ccco2)n1/N=C/c1ccco1 | inactive: 1.02
O=C(CCC(=O)NNC(=O)C1CC1)NNC(=O)C1CC1 | inactive: 1.01
S=c1n(CN2CCOCC2)nnn1C1CCCCC1 | inactive: 1.44

Filtered by structure, those above containing a COOH group
SMILES | cell-surface Lgr5 expression
O=C(O)CC(C(=O)O)C1CCCO1 (stereo not drawn) | inactive: 1.3
CCC(C(=O)O)N1C(=O)NC2C1N(C)C(=O)N2C (stereo not drawn) | inactive: 1.32
COc1coc(C(=O)O)c1OC | inactive: 1.18
O=C(O)c1ccnn1C(F)F | inactive: 1.09

Following part

SMILES | cell-surface Lgr5 expression
Cc1n[nH]c(C)c1C12CC3CC(CC(C3)C1)C2 | inactive: 1.2
CC(C)c1ccc(C2=NN(c3ccccc3)C3(CC2)SC(c2ccccc2)=NN3c2ccccc2)cc1 (stereo not drawn) | inactive: 1.11
O=[N+]([O-])c1cc2nccnc2cc1Cl | inactive: 1.34
Nc1nc2c(s1)CCCC2 | inactive: 1.16
CC(C)(C)c1ccc(-c2nc(-c3ccc(Br)o3)no2)cc1 | inactive: 1.2
Clc1ccc2c(c1)C1OCCC1C(c1ccco1)N2 (stereo not drawn) | inactive: 1.05
C=C(C)C[C@H]1CC=C[C@H](CC(=C)C)N1 | inactive: 1.2
O=[N+]([O-])c1ccc(C2Nc3cc(Br)ccc3C3C=CCC32)cc1 (stereo not drawn) | inactive: 0.245
COCc1n[nH]c2c1C(c1ccsc1)C(C#N)=C(N)O2 (stereo not drawn) | inactive: 1.16
Brc1ccc(C2C3=C(Nc4ncnn42)c2ccccc2OC3c2ccccc2)cc1 (stereo not drawn) | inactive: 1.1
O=C1OC(c2ccccc2F)=N/C1=C\c1cccc2ccccc12 | inactive: 1.19
Cc1nn(CC(=O)Nc2cnn(C(C)C)c2)c(C)c1Cl | inactive: 0.986
O=S(=O)(NC1CCCCCC1)c1ccc(F)cc1 | inactive: 1.22
CN1CCN(S(=O)(=O)c2ccc(Br)cc2)CC1 | inactive: 1.33
CON(C)c1nc(Cl)nc(N(C)C)n1 | inactive: 1.02
CCCc1nc2c(o1)C(C(=O)OC)C(C)(C)CC2=O (stereo not drawn) | inactive: 0.809
Clc1cc(-c2ccccn2)nc(-c2ccccn2)c1 | inactive: 0.389
c1ccc(-c2nc(-c3ccc4c(c3)sc3ccccc34)c(-c3ccccc3)[nH]2)cc1 | inactive: 0.699
Cn1cnnc1Sc1cc(N2CCCC2)ccc1[N+](=O)[O-] | inactive: 0.992
CC(=O)OCC(=O)C1CCC2C3CC=C4CC(O)CCC4(C)C3CCC12C (stereo not drawn) | inactive: 1.35
